Assay results: the supplement of paper PMC10849652
The list shows a part of the results.

Protein sequences, listed by entry. Tags and fused reporters are not part of them. Lines headed by an entry give the natural chain unless they say otherwise; changes in a name come on top.
UniProt Q86U44, whole entry, looked up: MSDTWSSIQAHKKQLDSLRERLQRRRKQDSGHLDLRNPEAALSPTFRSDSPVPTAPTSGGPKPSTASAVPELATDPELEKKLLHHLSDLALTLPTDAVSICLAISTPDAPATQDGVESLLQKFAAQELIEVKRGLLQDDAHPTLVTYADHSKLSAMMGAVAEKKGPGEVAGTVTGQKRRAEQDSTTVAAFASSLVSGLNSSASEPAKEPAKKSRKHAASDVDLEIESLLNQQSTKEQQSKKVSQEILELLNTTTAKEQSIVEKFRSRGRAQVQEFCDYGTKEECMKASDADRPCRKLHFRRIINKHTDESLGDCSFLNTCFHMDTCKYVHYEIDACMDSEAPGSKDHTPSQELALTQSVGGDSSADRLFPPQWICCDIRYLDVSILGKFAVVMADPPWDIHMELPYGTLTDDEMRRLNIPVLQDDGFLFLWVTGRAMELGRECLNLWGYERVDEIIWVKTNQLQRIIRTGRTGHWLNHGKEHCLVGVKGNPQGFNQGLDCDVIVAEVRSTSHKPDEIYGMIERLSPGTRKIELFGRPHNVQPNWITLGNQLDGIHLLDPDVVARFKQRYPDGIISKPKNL
UniProt Q9ULC4: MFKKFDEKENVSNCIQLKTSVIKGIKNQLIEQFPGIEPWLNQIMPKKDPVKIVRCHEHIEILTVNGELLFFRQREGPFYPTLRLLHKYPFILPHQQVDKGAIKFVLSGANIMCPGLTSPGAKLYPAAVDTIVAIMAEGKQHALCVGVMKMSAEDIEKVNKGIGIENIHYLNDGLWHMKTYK
UniProt Q9HCE5: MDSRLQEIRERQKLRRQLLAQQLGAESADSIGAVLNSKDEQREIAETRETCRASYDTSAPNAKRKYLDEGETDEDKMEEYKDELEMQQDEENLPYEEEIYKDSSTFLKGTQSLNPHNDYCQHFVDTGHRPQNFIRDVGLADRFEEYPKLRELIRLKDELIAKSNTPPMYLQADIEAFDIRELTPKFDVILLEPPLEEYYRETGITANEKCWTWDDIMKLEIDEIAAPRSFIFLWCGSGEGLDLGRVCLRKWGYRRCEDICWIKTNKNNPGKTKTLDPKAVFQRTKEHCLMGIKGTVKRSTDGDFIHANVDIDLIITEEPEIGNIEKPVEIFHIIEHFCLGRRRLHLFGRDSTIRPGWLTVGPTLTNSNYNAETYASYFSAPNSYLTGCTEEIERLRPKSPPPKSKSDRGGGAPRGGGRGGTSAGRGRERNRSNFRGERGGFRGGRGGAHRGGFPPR
UniProt P55081: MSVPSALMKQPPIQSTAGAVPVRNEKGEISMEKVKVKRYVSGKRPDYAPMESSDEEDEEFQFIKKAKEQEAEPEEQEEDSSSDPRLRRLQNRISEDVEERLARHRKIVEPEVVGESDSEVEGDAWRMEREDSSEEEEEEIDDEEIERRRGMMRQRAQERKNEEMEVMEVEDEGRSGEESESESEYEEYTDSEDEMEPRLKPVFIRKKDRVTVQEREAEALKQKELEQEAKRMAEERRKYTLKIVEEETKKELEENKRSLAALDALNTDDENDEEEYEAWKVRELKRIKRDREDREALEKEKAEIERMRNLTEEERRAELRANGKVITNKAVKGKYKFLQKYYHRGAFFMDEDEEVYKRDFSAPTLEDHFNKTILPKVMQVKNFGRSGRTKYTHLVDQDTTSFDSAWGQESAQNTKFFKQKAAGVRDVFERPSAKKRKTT
UniProt Q9Y316: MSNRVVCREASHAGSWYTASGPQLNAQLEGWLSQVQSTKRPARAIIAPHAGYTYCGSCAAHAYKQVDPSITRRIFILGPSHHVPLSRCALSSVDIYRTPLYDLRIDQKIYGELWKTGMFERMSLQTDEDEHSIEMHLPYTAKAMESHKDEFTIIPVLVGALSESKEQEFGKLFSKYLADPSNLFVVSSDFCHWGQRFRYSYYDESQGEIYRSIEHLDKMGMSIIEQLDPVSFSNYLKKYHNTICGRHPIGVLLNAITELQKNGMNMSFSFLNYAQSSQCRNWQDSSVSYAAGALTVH
UniProt Q9H1U4: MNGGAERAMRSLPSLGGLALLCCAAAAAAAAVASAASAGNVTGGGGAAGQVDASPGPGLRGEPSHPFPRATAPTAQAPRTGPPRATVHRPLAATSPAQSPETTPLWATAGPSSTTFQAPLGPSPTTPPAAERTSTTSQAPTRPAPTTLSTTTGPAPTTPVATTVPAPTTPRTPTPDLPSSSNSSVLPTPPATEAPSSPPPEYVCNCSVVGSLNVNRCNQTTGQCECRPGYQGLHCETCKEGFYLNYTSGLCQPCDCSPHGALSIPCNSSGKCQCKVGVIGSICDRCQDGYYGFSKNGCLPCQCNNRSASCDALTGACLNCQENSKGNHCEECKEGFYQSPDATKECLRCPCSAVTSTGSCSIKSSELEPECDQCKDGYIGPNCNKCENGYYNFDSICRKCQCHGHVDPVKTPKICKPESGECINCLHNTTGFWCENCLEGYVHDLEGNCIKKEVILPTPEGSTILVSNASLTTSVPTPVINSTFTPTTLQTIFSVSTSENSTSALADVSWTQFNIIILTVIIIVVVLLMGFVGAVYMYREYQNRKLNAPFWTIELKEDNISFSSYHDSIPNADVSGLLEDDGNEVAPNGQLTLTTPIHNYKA
UniProt Q9UHV7: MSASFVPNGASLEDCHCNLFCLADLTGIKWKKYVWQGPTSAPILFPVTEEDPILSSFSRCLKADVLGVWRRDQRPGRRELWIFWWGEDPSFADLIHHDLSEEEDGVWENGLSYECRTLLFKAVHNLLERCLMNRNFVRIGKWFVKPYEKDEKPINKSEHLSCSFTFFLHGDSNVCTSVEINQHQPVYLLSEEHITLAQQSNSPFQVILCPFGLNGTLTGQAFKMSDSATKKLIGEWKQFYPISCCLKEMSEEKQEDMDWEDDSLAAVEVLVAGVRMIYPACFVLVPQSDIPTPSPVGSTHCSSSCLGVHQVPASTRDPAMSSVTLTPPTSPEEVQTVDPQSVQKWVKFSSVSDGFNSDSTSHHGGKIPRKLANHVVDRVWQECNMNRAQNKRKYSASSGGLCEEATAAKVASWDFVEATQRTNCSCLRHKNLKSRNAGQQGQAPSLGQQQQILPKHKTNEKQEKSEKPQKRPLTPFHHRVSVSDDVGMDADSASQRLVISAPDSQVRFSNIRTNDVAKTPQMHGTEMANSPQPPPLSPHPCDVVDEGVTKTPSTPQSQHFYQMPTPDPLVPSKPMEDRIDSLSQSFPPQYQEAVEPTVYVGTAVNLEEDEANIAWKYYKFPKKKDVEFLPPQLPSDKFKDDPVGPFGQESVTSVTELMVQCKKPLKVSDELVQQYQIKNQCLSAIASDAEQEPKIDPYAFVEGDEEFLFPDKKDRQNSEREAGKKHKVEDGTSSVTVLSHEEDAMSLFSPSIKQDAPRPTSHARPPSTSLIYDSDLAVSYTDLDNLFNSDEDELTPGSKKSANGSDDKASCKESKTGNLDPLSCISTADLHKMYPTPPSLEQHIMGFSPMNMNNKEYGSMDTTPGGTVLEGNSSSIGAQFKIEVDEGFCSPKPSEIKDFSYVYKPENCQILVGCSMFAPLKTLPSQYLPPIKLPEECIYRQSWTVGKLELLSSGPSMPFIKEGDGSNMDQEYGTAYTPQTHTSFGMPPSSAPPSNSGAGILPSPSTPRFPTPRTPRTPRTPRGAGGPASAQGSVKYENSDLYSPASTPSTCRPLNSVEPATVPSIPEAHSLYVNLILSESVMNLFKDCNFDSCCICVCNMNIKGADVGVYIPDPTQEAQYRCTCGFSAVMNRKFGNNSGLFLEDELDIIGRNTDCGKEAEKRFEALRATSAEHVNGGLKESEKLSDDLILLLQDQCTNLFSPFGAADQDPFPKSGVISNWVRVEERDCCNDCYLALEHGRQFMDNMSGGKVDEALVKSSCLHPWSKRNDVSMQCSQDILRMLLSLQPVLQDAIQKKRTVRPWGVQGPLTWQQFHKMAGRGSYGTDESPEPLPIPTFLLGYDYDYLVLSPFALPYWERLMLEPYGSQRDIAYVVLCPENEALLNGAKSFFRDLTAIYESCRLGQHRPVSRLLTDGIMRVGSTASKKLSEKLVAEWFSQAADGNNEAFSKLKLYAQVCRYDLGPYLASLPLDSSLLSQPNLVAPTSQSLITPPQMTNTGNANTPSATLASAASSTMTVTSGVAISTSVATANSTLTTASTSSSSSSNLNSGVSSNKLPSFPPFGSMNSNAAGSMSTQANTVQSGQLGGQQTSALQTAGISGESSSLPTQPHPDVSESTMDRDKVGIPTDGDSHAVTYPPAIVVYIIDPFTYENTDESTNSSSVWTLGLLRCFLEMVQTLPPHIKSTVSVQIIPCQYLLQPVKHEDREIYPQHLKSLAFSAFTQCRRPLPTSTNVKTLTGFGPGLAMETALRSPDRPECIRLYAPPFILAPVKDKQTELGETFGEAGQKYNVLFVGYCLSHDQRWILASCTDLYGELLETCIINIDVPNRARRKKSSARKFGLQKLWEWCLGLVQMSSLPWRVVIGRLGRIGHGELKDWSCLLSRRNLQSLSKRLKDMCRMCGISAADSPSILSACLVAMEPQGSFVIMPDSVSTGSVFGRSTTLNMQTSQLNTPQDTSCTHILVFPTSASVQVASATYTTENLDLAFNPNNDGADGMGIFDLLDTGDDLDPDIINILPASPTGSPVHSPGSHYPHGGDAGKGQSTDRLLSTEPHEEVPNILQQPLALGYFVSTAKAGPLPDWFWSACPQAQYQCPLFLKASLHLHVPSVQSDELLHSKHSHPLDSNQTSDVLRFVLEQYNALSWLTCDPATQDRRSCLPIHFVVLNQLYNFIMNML
UniProt Q7L590: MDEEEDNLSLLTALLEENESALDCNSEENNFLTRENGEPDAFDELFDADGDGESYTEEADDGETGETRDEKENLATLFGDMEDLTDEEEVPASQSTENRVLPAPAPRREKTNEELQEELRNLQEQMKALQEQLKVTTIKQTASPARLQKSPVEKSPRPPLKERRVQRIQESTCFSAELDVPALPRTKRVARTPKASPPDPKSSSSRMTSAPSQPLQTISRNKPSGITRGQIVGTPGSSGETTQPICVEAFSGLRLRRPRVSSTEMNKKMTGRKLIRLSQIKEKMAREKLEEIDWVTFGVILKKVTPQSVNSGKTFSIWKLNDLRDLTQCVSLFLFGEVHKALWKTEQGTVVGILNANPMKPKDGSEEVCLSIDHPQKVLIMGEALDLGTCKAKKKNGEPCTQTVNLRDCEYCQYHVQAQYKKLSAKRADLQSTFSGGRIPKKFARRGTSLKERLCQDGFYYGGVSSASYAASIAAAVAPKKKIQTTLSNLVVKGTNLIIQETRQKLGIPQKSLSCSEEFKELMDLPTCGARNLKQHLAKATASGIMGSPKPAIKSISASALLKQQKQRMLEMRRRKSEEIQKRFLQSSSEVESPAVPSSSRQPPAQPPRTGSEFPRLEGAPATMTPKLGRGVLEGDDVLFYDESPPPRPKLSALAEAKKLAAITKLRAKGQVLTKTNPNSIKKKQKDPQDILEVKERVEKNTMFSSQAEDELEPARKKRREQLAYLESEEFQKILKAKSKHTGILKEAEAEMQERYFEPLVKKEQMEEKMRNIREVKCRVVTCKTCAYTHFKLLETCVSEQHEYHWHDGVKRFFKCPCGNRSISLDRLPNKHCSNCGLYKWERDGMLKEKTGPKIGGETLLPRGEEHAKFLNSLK
UniProt P49736, whole entry, looked up: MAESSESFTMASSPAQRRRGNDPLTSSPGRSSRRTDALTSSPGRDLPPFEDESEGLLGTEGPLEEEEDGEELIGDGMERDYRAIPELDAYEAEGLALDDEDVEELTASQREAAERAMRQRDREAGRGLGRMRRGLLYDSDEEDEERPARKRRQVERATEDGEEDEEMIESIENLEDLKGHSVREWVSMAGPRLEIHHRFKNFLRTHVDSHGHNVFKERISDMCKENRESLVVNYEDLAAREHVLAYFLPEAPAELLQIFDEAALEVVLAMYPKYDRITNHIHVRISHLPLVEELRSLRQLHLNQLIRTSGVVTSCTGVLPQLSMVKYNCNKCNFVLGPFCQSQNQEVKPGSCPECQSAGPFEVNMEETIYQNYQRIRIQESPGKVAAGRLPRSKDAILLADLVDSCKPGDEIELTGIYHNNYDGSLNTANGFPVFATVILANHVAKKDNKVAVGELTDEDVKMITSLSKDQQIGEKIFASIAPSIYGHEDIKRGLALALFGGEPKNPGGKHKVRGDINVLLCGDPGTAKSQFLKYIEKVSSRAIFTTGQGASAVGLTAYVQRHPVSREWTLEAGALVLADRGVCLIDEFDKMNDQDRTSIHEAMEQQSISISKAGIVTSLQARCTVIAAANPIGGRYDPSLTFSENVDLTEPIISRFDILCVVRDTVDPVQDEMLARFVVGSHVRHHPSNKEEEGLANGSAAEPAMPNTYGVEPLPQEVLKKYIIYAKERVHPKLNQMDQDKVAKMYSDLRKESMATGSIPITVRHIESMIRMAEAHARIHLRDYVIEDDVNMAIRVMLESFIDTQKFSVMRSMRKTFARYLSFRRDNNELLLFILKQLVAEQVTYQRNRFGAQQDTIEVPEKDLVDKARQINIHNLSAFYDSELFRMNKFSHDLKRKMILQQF

How the values were obtained:
Assay in all cases: log2 fold change, soluble protein after heating vs DMSO (PISA); higher = thermal stabilisation; K562 lysate, 10 uM; active = over 0.2 and 3.5 SD of the protein, either way, in both replicates (recomputed)
[1] = compound: C#Cc1cccc(Nc2ncnc3cc(OCCOC)c(OCCOC)cc23)c1 [erlotinib]
Procedure, shortened: (§1)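 Pellets of K562 cells were dounce-homogenised in PBS pH 7.4 with 1 mM MgCl2, and the crude extract was held at 1 mg/mL protein for a 30 min treatment with 10 μM compound. Aliquots were heated for 3 min over 48°C-58°C and pooled before NP-40 was added to 0.5% at 4°C. The supernatant from 21,000xg for 90 min was quantified by TMTpro 16plex LC-MS/MS with channel sums equalised. Values are reported from duplicates as log-two fold change in thermal stability relative to solvent controls.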

[2] = compound: C/C(=N\NC(=O)C1=CC(=CC=C1)S(=O)(=O)N2CCOCC2)/C3=C(C=CC(=C3)Cl)O
Procedure, shortened: as §1

[3] = compound: C1=CC(=CC=C1C2=NC3=C(N2)C=C(C=C3)C(=O)N)OC4=CC=C(C=C4)Cl
Procedure, shortened: as §1

[4] = compound: C1=CC2=C(C=CC(=C2)/C=C\3/C(=O)NC(=NCC4=CC=CS4)S3)N=C1
Procedure, shortened: as §1

[5] = compound: C1=CC2=NC=CN=C2C=C1/C=C/3\C(=O)NC(=O)S3
Procedure, shortened: as §1

[6] = compound: C1=CC=C(C=C1)C2=NC(=C(N2)C3=CC=NC=C3)C4=CC(=C(C=C4)Cl)O
Procedure, shortened: as §1

[7] = compound: C1=CC=C2C(=C1)C3=NNC4=CC=CC(=C43)C2=O
Procedure, shortened: as §1

[8] = compound: C1CCN(C1)C(=O)NC2=CC=CC(=C2)NC3=NC=C(C(=N3)NCCC4=CN=CN4)Br
Procedure, shortened: as §1

[9] = compound: C1CN(CCC1(CC2=CC=C(C=C2)Cl)N)C3=NC=NC4=C3C=CN4
Procedure, shortened: as §1

[10] = compound: C1COCCN1CCN2C3=CC=CC=C3N=C2NC(=O)C4=CC(=CC=C4)[N+](=O)[O-] [IRAK-1-4 Inhibitor I]
Procedure, shortened: as §1

Measured: log2 fold change

METTL3 (UniProt Q86U44)
inactive: [1] -0.014 | [2] -0.082 | [3] 0.016 | [4] 0.024 | [5] -0.021 | [6] 0.005 | [7] -0.026 | [8] -0.028 | [9] 0 | [10] 0.014

MCTS1 isoform 3 (UniProt Q9ULC4)
inactive: [1] -0.016 | [2] 0.028 | [3] 0.035 | [4] -0.006 | [5] -0.007 | [6] -0.01 | [7] 0.025 | [8] 0.019 | [9] 0.004 | [10] 0.016

METAP1D (UniProt Q6UB28)
inactive: [1] 0.083 | [2] -0.183 | [3] -0.068 | [4] 0.043 | [5] 0.006 | [6] 0.01 | [7] 0.039 | [8] 0.026 | [9] 0.001 | [10] -0.007

MCEE (UniProt Q96PE7)
inactive: [1] -0.001 | [2] 0.017 | [3] 0.039 | [4] 0.019 | [5] 0.006 | [6] -0.02 | [7] -0.076 | [8] -0.057 | [9] 0.095 | [10] -0.058

METTL14 (UniProt Q9HCE5)
inactive: [1] 0.006 | [2] 0.037 | [3] 0.032 | [4] -0.02 | [5] -0.053 | [6] 0.043 | [7] -0.005 | [8] -0.009 | [9] 0.011 | [10] -0.009

MFAP1 (UniProt P55081)
inactive: [1] -0.016 | [2] -0.028 | [3] 0.074 | [4] -0.026 | [5] -0.04 | [6] 0.025 | [7] -0.021 | [8] -0.004 | [9] -0.036 | [10] -0.002

MBOAT7 (UniProt Q96N66)
inactive: [1] 0.017 | [2] 0.018 | [3] -0.028 | [4] -0.018 | [5] 0.012 | [6] -0.045 | [7] -0.059 | [8] 0.011 | [9] -0.007 | [10] 0.017

MAU2 (UniProt Q9Y6X3)
inactive: [1] 0.102 | [2] -0.087 | [3] 0.027 | [4] 0.037 | [5] -0.107 | [6] -0.038 | [7] -0.067 | [8] -0.02 | [9] 0.011 | [10] -0.044

MEMO1 (UniProt Q9Y316)
inactive: [1] 0.006 | [2] 0.036 | [3] 0.035 | [4] 0.023 | [5] 0.035 | [6] 0.004 | [7] -0.048 | [8] -0.021 | [9] 0.035 | [10] -0.014

MEGF9 (UniProt Q9H1U4)
inactive: [1] 0.142 | [2] -0.145 | [3] -0.198 | [4] 0.01 | [5] -0.009 | [6] 0.048 | [7] -0.108 | [8] -0.044 | [9] 0.125 | [10] 0.083

MED20 (UniProt Q9H944)
inactive: [1] -0.008 | [2] 0.002 | [3] -0.008 | [4] 0.003 | [5] 0.022 | [6] -0.016 | [7] 0.036 | [8] -0.08 | [9] -0.067 | [10] -0.002

MED13 (UniProt Q9UHV7)
inactive: [1] -0.034 | [2] 0.047 | [3] 0.082 | [4] -0.02 | [5] -0.003 | [6] -0.031 | [7] 0.022 | [8] 0.053 | [9] 0.018 | [10] 0.045

MED18 (UniProt Q9BUE0)
inactive: [1] -0.03 | [2] 0.008 | [3] 0.004 | [4] -0.01 | [5] 0.015 | [6] 0.021 | [7] -0.017 | [8] -0.005 | [9] -0.015 | [10] 0.047

MDP1 (UniProt Q86V88)
inactive: [1] 0.01 | [2] -0.036 | [3] 0 | [4] 0.018 | [5] -0.012 | [6] -0.024 | [7] 0 | [8] 0.013 | [9] 0.06 | [10] 0

MCCC1 (UniProt Q96RQ3)
inactive: [1] 0.037 | [2] -0.028 | [3] 0.048 | [4] -0.052 | [5] 0.025 | [6] -0.029 | [7] -0.085 | [8] -0.022 | [9] 0.077 | [10] -0.008

MBNL1 (UniProt C9JP00)
inactive: [1] 0.034 | [2] 0.121 | [3] 0.024 | [4] 0.021 | [5] -0.029 | [6] -0.045 | [7] 0.039 | [8] 0.047 | [9] 0.016 | [10] 0.087

MCUR1 (UniProt Q96AQ8)
inactive: [1] -0.026 | [2] 0.002 | [3] 0.018 | [4] 0.019 | [5] -0.003 | [6] 0 | [7] -0.007 | [8] 0 | [9] 0.012 | [10] -0.033

MED23 (UniProt Q9ULK4)
inactive: [1] -0.009 | [2] -0.036 | [3] 0.014 | [4] -0.022 | [5] -0.01 | [6] -0.028 | [7] -0.001 | [8] -0.046 | [9] 0.019 | [10] -0.012

MEN1 (UniProt O00255)
inactive: [1] 0.065 | [2] 0.008 | [3] 0.024 | [4] 0.111 | [6] 0.068 | [7] -0.058 | [8] 0.126 | [9] -0.076 | [10] 0.053

MCM10 (UniProt Q7L590)
inactive: [1] 0.036 | [2] -0.079 | [3] -0.027 | [4] -0.042 | [5] -0.144 | [6] -0.025 | [7] 0.018 | [10] -0.017

Taken from above (2 entries):
MED23 (UniProt Q9ULK4)
inactive: [1] -0.009 | [2] -0.036 | [3] 0.014 | [4] -0.022 | [5] -0.01 | [6] -0.028 | [7] -0.001 | [8] -0.046 | [9] 0.019 | [10] -0.012

MEN1 (UniProt O00255)
inactive: [1] 0.065 | [2] 0.008 | [3] 0.024 | [4] 0.111 | [6] 0.068 | [7] -0.058 | [8] 0.126 | [9] -0.076 | [10] 0.053

Later entries

MBLAC1 (UniProt A4D2B0)
inactive: [1] -0.137 | [2] -0.165 | [3] -0.173 | [4] -0.071 | [7] -0.273 | [8] 0.074 | [9] 0.05

METTL2A (UniProt Q96IZ6)
inactive: [1] 0.023 | [2] -0.009 | [3] -0.026 | [4] 0.037 | [5] 0 | [6] -0.018 | [7] -0.026 | [8] 0.002 | [9] 0.166 | [10] 0.042

MEPCE (UniProt Q7L2J0)
inactive: [1] 0 | [2] 0.024 | [3] 0.005 | [4] 0.016 | [5] -0.045 | [6] -0.008 | [7] 0.022 | [8] 0.011 | [9] -0.025 | [10] -0.038

MBOAT1 (UniProt Q6ZNC8)
inactive: [1] 0.436 | [2] -0.125 | [3] -0.018 | [4] 0.122 | [5] -0.075 | [6] 0.024 | [7] -0.313 | [8] -0.013 | [9] -0.03 | [10] -0.096

MBNL2 (UniProt Q5VZF2)
inactive: [1] 0.097 | [2] 0.047 | [3] 0.311 | [4] 0.06 | [6] -0.064 | [7] -0.07 | [8] 0.114 | [9] -0.036 | [10] -0.005

MCM2 (UniProt P49736)
inactive: [1] 0.02 | [2] -0.021 | [3] -0.003 | [4] 0.006 | [5] 0.002 | [6] -0.001 | [7] -0.001 | [8] -0.014 | [9] 0.011 | [10] 0.002

MELK (UniProt Q14680)
inactive: [1] 0.056 | [2] -0.077 | [3] 0.022 | [4] -0.002 | [6] 0.111 | [7] 0.022 | [8] 0.2 | [9] -0.192 | [10] 0.017

METAP1 (UniProt P53582)
inactive: [1] 0.006 | [2] -0.055 | [3] 0.011 | [4] 0.004 | [5] -0.041 | [6] -0.024 | [7] 0.012 | [8] -0.01 | [9] 0.026 | [10] 0.036
